Results are given in words; binding and its absence hold for the method and conditions named. In cells and extracts the contact can be indirect. Some results given as binding are weak or reduced against the parent protein; the word gives no strength. Where a sequence is shown, tags or fusion partners need not be part of it.
Molecular target: HA-Sd (Scalloped) (Drosophila) (UniProt P30052)
Assay: co-IP

By UniProt entry, the sequences of proteins in these tests, tags left out.
UniProt P30052, whole entry: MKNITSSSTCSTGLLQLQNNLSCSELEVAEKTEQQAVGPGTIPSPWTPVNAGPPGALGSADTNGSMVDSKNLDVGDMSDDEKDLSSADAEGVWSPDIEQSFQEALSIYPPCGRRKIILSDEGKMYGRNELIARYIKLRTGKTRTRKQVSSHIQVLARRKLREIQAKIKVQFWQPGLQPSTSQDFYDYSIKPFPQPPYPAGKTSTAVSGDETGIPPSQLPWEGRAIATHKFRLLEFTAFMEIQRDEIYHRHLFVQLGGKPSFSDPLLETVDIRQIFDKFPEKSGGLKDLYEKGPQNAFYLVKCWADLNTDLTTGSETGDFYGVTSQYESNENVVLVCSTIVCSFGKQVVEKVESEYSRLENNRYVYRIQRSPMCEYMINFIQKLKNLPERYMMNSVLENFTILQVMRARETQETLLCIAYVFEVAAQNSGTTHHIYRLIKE

binding: binds
B1: GFP-Yki (Yorkie) (protein, UniProt Q45VV3 1-395)
chain: MLTTMSASSNTNSLIEKEIDDEDMLSPIKSNNLVVRVNQDTDDNLQALFDSVLNPGDAKRPLQLPLRMRKLPNSFFTPPAPSHSRANSADSTYDAGSQSSINIGNKASIVQQPDGQSPIAAIPQLQIQPSPQHSRLAIHHSRARSSPASLQQNYNVRARSDAAAANNPNANPSSQQQPAGPTFPENSAQEFPSGAPASSAIDLDAMNTCMSQDIPMSMQTVHKKQRSYDVISPIQLNRQLGALPPGWEQAKTNDGQIYYLNHTTKSTQWEDPRIQYRQQQQILMAERIKQNDVLQTTKQTTTSTIANNLGPLPDGWEQAVTESGDLYFINHIDRTTSWNDPRMQSGLSVLDCPDNLVSSLQIEDNLCSNLFNDAQAIVNPPSSHKPDDLEWYKIN
